PubChem BioAssay AID504808, Drosophila RNAi Screening Center, 2011
Test: 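Fly genes required to hold E2F transcription in check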 (primary screen). System: Drosophila S2 cells. Knock-down reagent: long dsRNA against Drosophila genes. Measured: 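Dual luciferase plate measurements; E2F-specific signal taken as firefly over Renilla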. Reading the numbers: E2F firefly: higher = more E2F reporter activity; Renilla normaliser: higher = more normaliser reporter signal. Call rule: 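a knock-down counted as active when the firefly/Renilla E2F signal rose above 50%, a threshold chosen arbitrarily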.
The deposit covers about 21,000 reagents; below is a random part of those with a known target gene and a result. Of all reagents, 18 (0.084%) got an active call. 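Raw counts without plate normalisation, one of two replicates; the ratio scores behind the calls were not deposited.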 Reagents against one gene are numbered here. Names joined by + are all predicted targets of the reagent. No sequences are given here. Not given: the amount of reagent, the time to read-out.

| target gene | reagent no. | E2F firefly, rep 1 | Renilla normaliser, rep 1 | Outcome |
| --- | --- | --- | --- | --- |
| Dhod (Dihydroorotate dehydrogenase) | 1 | 80477 | 4383 | inactive |
| stw (straw) | 1 | 1.16e5 | 5703 | inactive |
| stw (straw) | 2 | 1.14e5 | 4199 | inactive |
| CG31793 | 1 | 1.12e5 | 4634 | inactive |
| CG32409 | 1 | 1.39e5 | 4125 | inactive |
| CG2972 | 1 | 6478 | 688 | inactive |
| CG13760 | 1 | 1.42e5 | 6377 | inactive |
| Cdk1 (Cyclin-dependent kinase 1) | 1 | 45279 | 210 | inactive |
| CG14736 | 1 | 1.49e5 | 6510 | inactive |
| Vps13B (Vacuolar protein sorting 13B) | 1 | 1.11e5 | 5536 | inactive |
| CG6293 | 1 | 54504 | 3140 | inactive |
| drn (doctor no) | 1 | 1.17e5 | 8150 | inactive |
| CG31493 | 1 | 73944 | 3950 | inactive |
| CG17684 | 1 | 1.66e5 | 5797 | inactive |
| CG17684 | 2 | 1.38e5 | 6309 | inactive |
| tll (tailless) | 1 | 1.29e5 | 6375 | inactive |
| Hs2st (Heparan sulfate 2-O-sulfotransferase) | 1 | 76183 | 3032 | inactive |
| CG13364 | 1 | 1.30e5 | 6300 | inactive |
| CG13364 | 2 | 1.47e5 | 6136 | inactive |
| CG13033 | 1 | 1.68e5 | 8688 | inactive |
| CG15553 | 1 | 1.20e5 | 6060 | inactive |
| CG15631 | 1 | 1.33e5 | 4834 | inactive |
| CG17287 | 1 | 1.61e5 | 5033 | inactive |
| CG11034 | 1 | 1.77e5 | 5284 | inactive |
| CG11034 | 2 | 1.47e5 | 4705 | inactive |
| CG5412 | 1 | 68853 | 4347 | inactive |
| CG4360 | 1 | 1.21e5 | 6880 | inactive |
| FANCI (Fanconi anemia complementation group I) | 1 | 1.51e5 | 5514 | inactive |
| ImpE3 (Ecdysone-inducible gene E3) | 1 | 1.24e5 | 7159 | inactive |
| Sf3a1 (Splicing factor 3a subunit 1) | 1 | 49918 | 3438 | inactive |
| CG9222 | 1 | 1.46e5 | 5375 | inactive |
| CG3062 | 1 | 44228 | 3259 | inactive |
| Muc12Ea (Mucin 12Ea) | 1 | 2.33e5 | 7900 | inactive |
| CG33303 | 1 | 1.64e5 | 5958 | inactive |
| e(r) (enhancer of rudimentary) | 1 | 8590 | 748 | inactive |
| CG13114 | 1 | 1.48e5 | 5440 | inactive |
| CG11899 | 1 | 1.35e5 | 6903 | inactive |
| RpL36A (Ribosomal protein L36A) | 1 | 1.14e5 | 5832 | inactive |
| Cp36 (Chorion protein 36) | 1 | 45441 | 4018 | inactive |
| CG16723 | 1 | 1.03e5 | 5450 | inactive |

6 entries from above, limited to “E2F firefly, rep 1”:
stw (straw) #2: 1.14e5
CG31793: 1.12e5
CG32409: 1.39e5
CG2972: 6478
CG13760: 1.42e5
Cdk1 (Cyclin-dependent kinase 1): 45279

Next records follow.
| target gene | reagent no. | E2F firefly, rep 1 | Renilla normaliser, rep 1 | Outcome |
| --- | --- | --- | --- | --- |
| l(2)k01209 (lethal (2) k01209) | 1 | 1.44e5 | 5341 | inactive |
| Vha100-2 (Vacuolar H[+] ATPase 100kD subunit 2) | 1 | 70503 | 3611 | inactive |
| Cat (Catalase) | 1 | 1.68e5 | 8932 | inactive |
| BBS4 (Bardet-Biedl syndrome 4) | 1 | 54725 | 3147 | inactive |
| hd (humpty dumpty) | 1 | 1.69e5 | 6249 | inactive |
| grn (grain) | 1 | 65294 | 4030 | inactive |
| grn (grain) | 2 | 1.36e5 | 6859 | inactive |
| lncRNA:CR42862 + CG33229 | 1 | 85995 | 3684 | inactive |
| CG18063 | 1 | 97230 | 4737 | inactive |
| ab (abrupt) | 1 | 1.41e5 | 3975 | inactive |
| Pdk1 (Phosphoinositide-dependent kinase 1) | 1 | 1.10e5 | 4144 | inactive |
| indra | 1 | 89367 | 4574 | inactive |
| rols (rolling pebbles) | 1 | 1.04e5 | 6769 | inactive |
| rols (rolling pebbles) | 2 | 1.43e5 | 7140 | inactive |
| rols (rolling pebbles) | 3 | 1.22e5 | 7015 | inactive |
| CG7295 | 1 | 1.81e5 | 7600 | inactive |
| Claspin | 1 | 54803 | 3671 | inactive |
| SuUR (Suppressor of Under-Replication) | 1 | 95763 | 4291 | inactive |
| CG11145 | 1 | 1.38e5 | 4737 | inactive |
| CG13599 | 1 | 1.09e5 | 5734 | inactive |
| CG8501 | 1 | 206 | 43 | inactive |
| CG17472 | 1 | 1.02e5 | 4481 | inactive |
| Cyp6a20 (Cytochrome P450 6a20) | 1 | 150 | 35 | inactive |
| mthl2 (methuselah-like 2) | 1 | 84482 | 4071 | inactive |
| BomBc3 (Bomanin Bicipital 3) | 1 | 1.31e5 | 7105 | inactive |
| Jon74E (Jonah 74E) | 1 | 1.59e5 | 6974 | inactive |
| CG16970 (retired record) | 1 | 1.28e5 | 6029 | inactive |
| CG16970 (retired record) | 2 | 88430 | 3628 | inactive |
| tay (tay bridge) | 1 | 7862 | 844 | inactive |
| CG31275 | 1 | 1.16e5 | 6793 | inactive |
| Mps1 (Monopolar spindle 1) | 1 | 66357 | 4562 | inactive |
| mirr (mirror) | 1 | 1.53e5 | 7039 | inactive |
| Fnta (Farnesyl transferase alpha subunit) | 1 | 93981 | 3238 | inactive |
| CG30384 | 1 | 1.56e5 | 5070 | inactive |
| CG40282 (retired record) | 1 | 1.04e5 | 4382 | inactive |
| Septin5 (Septin 5) | 1 | 2931 | 223 | inactive |
| Dhpr (Dihydropteridine reductase) | 1 | 89528 | 3923 | inactive |
| Tmlh (Trimethyllysine hydroxylase) | 1 | 1.44e5 | 7656 | inactive |
| Drep2 (DNA fragmentation factor-related protein 2) | 1 | 2735 | 213 | inactive |
| ATPsynbetaL (ATP synthase, beta subunit-like) | 1 | 1.33e5 | 7898 | inactive |
| Mob4 (MOB kinase activator 4) | 1 | 94592 | 3871 | inactive |
| Gga | 1 | 8194 | 732 | inactive |
| PIG-S (Phosphatidylinositol glycan anchor biosynthesis class S) | 1 | 78604 | 3712 | inactive |
| PIG-S (Phosphatidylinositol glycan anchor biosynthesis class S) | 2 | 1.13e5 | 5975 | inactive |
| PIG-S (Phosphatidylinositol glycan anchor biosynthesis class S) | 3 | 73532 | 4020 | inactive |
